This is an account of results in patent publication US20040018193A1 (priority 2002, published 2004).

This data set has as its system murine macrophages. In kind it is cell-based. The settings on record: treated macrophages.

In the case of IFN-γ: cytokine interferon-gamma, the “levels of detectable tryptophan” value is listed as “decreased the levels of detectable tryptophan”.
